Our source for the binding values is paper doi:10.1101/2021.06.06.447241 (bioRxiv, 2021).

By UniProt entry, the sequences of proteins in these tests, tags left out. Where a name states a change or a piece, a line headed by the entry shows the natural chain unless it says otherwise. Residues count along the entry.
UniProt P15992: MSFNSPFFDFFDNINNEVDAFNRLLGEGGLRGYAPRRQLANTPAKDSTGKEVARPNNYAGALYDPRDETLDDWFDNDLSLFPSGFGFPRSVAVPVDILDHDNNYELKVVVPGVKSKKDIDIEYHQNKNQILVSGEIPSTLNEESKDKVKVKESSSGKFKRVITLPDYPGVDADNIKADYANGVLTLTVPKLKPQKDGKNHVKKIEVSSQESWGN
UniProt P00366, residues 58-558: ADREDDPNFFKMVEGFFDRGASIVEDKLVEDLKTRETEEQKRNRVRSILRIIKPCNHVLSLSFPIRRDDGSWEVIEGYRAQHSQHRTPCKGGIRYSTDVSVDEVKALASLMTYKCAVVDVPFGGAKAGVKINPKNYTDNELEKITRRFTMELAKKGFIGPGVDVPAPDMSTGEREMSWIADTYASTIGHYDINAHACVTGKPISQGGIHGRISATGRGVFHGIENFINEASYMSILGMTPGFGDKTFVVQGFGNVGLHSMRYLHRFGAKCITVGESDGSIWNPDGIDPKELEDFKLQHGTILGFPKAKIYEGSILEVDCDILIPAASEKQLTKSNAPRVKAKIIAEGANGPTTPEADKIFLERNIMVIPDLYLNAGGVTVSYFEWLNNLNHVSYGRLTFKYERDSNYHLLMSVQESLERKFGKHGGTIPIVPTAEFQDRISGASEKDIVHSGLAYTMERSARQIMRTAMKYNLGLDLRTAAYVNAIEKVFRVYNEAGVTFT
UniProt P25491: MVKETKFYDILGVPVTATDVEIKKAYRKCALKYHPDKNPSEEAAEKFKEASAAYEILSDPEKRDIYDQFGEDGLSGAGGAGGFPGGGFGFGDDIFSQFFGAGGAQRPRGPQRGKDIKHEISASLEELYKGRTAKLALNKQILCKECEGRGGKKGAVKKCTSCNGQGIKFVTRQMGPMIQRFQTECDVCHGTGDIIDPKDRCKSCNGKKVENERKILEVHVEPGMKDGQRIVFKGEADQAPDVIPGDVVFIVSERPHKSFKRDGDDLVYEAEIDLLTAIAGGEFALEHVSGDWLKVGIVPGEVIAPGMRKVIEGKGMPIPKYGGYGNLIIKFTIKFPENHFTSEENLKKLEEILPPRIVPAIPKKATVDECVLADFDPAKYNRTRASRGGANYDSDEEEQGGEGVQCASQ

Where two headings read alike, the source gives them in different places. These are yes or no findings as the source states them, for the method shown. Binding can be weak; no strength is given.

Common to all, as to assay: cross-linking
For assay [1], the target named is Hsp26 (yeast (Saccharomyces cerevisiae)) (UniProt P15992).
For assay [2], the target named is T1, L-malate dehydrogenase (MDH, from pig heart mitochondrial) (pig) (UniProt P00346).
T1 sequence: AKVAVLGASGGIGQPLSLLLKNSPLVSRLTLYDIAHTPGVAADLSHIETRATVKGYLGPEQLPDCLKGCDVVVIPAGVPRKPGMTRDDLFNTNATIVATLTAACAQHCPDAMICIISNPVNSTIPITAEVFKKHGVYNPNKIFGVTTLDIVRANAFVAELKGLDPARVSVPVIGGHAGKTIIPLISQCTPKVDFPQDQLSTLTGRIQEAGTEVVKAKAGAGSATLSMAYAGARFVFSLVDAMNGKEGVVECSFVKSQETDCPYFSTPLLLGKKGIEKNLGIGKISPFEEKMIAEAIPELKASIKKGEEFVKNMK

Assay [3] concerns the target T1, L-malate dehydrogenase (MDH, from pig heart mitochondrial) (pig). This is another data set of the same source.
Assay [4] addresses glutamate dehydrogenase (GDH, from bovine liver) (bovine) (UniProt P00366).

“Ydj1 (Hsp40) (from UniProt P25491 1-409)”: the binding entry in assay [1] is listed as “binds”.
For the substance Hsp26 (from UniProt P15992), the binding entry in assay [2], in assay [3] and in assay [4] was “binds” in each case.
